{"source": "PubChem BioAssay AID1159584 (Peter MacCallum Cancer Centre, 2016)", "purpose": "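Genes whose loss is lethal only together with E-cadherin loss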 (primary screen)", "system": "human MCF10A breast epithelial cells, parental and CDH1-null", "reagent": "siRNA against human genes", "detection": "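ATP luminescence (CellTiter-Glo) viability per line relative to mean mock wells over all plates, and the ratio of CDH1-null to parental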", "direction": "CDH1-null / parental viability ratio: higher = CDH1-null cells survive relatively better than parental; CDH1-null viability vs mock: higher = more viable CDH1-null cells", "units": "CDH1-null viability vs mock in fraction of mock", "note": "Shown is an unselected part of about 18,000 reagents tested. Not all columns of the deposit are shown. Not stated in the record: the amount of reagent, the time to read-out."}
{"gene": "MAN2A2 (mannosidase alpha class 2A member 2)", "CDH1-null / parental viability ratio": 1.02, "CDH1-null viability vs mock": 0.88}
{"gene": "LDOC1 (LDOC1 regulator of NFKB signaling)", "CDH1-null / parental viability ratio": 0.92, "CDH1-null viability vs mock": 0.57}
{"gene": "IL1A (interleukin 1 alpha)", "CDH1-null / parental viability ratio": 1.07, "CDH1-null viability vs mock": 1.11}
{"gene": "CNTN1 (contactin 1)", "CDH1-null / parental viability ratio": 1.1, "CDH1-null viability vs mock": 1.12}
{"gene": "HSPA14 (heat shock protein family A (Hsp70) member 14)", "CDH1-null / parental viability ratio": 0.74, "CDH1-null viability vs mock": 0.68}
{"gene": "BCL2L12 (BCL2 like 12)", "CDH1-null / parental viability ratio": 1, "CDH1-null viability vs mock": 0.69}
{"gene": "CD6 (CD6 molecule)", "CDH1-null / parental viability ratio": 1.04, "CDH1-null viability vs mock": 0.75}
{"gene": "CD40 (CD40 molecule)", "CDH1-null / parental viability ratio": 0.96, "CDH1-null viability vs mock": 0.73}
{"gene": "KLHL38 (kelch like family member 38)", "CDH1-null / parental viability ratio": 1.08, "CDH1-null viability vs mock": 0.7}
{"gene": "PLAA (phospholipase A2 activating protein)", "CDH1-null / parental viability ratio": 1, "CDH1-null viability vs mock": 0.68}
{"gene": "GPATCH8 (G-patch domain containing 8)", "CDH1-null / parental viability ratio": 1.05, "CDH1-null viability vs mock": 0.82}
{"gene": "MITD1 (microtubule interacting and trafficking domain containing 1)", "CDH1-null / parental viability ratio": 0.93, "CDH1-null viability vs mock": 0.86}
{"gene": "PPP2R3B (protein phosphatase 2 regulatory subunit B''beta)", "CDH1-null / parental viability ratio": 1.72, "CDH1-null viability vs mock": 0.62}
{"gene": "AMER3 (APC membrane recruitment protein 3)", "CDH1-null / parental viability ratio": 1.09, "CDH1-null viability vs mock": 1}
{"gene": "CTNNBIP1 (catenin beta interacting protein 1)", "CDH1-null / parental viability ratio": 1.68, "CDH1-null viability vs mock": 0.94}
{"gene": "CRYGA (crystallin gamma A)", "CDH1-null / parental viability ratio": 1, "CDH1-null viability vs mock": 0.6}
{"gene": "CNBD2 (cyclic nucleotide binding domain containing 2)", "CDH1-null / parental viability ratio": 0.97, "CDH1-null viability vs mock": 0.76}
{"gene": "FUT2 (fucosyltransferase 2 (H blood group))", "CDH1-null / parental viability ratio": 0.85, "CDH1-null viability vs mock": 0.68}
{"gene": "NINL (ninein like)", "CDH1-null / parental viability ratio": 0.74, "CDH1-null viability vs mock": 1.02}
{"gene": "ARVCF (ARVCF delta catenin family member)", "CDH1-null / parental viability ratio": 1.06, "CDH1-null viability vs mock": 0.74}
{"gene": "CXCL3 (C-X-C motif chemokine ligand 3)", "CDH1-null / parental viability ratio": 1.09, "CDH1-null viability vs mock": 1.09}
{"gene": "CPT1A (carnitine palmitoyltransferase 1A)", "CDH1-null / parental viability ratio": 0.98, "CDH1-null viability vs mock": 0.8}
{"gene": "CNNM4", "CDH1-null / parental viability ratio": 0.99, "CDH1-null viability vs mock": 1.09}
{"gene": "NTHL1 (nth like DNA glycosylase 1)", "CDH1-null / parental viability ratio": 0.76, "CDH1-null viability vs mock": 0.68}
{"gene": "CCR4 (C-C motif chemokine receptor 4)", "CDH1-null / parental viability ratio": 1.57, "CDH1-null viability vs mock": 0.88}
{"gene": "NIPSNAP2 (nipsnap homolog 2)", "CDH1-null / parental viability ratio": 1.23, "CDH1-null viability vs mock": 0.86}
{"gene": "AGRN (agrin)", "CDH1-null / parental viability ratio": 1.47, "CDH1-null viability vs mock": 0.84}
{"gene": "SLC9A3", "CDH1-null / parental viability ratio": 1.29, "CDH1-null viability vs mock": 1.08}
{"gene": "AREL1 (apoptosis resistant E3 ubiquitin protein ligase 1)", "CDH1-null / parental viability ratio": 1.1, "CDH1-null viability vs mock": 0.97}
{"gene": "ABCF2 (ATP binding cassette subfamily F member 2)", "CDH1-null / parental viability ratio": 0.98, "CDH1-null viability vs mock": 0.88}
{"gene": "ARF4 (ARF GTPase 4)", "CDH1-null / parental viability ratio": 0.94, "CDH1-null viability vs mock": 1.03}
{"gene": "MYH3 (myosin heavy chain 3)", "CDH1-null / parental viability ratio": 1.15, "CDH1-null viability vs mock": 0.82}
{"gene": "IL1R1 (interleukin 1 receptor type 1)", "CDH1-null / parental viability ratio": 1.58, "CDH1-null viability vs mock": 1.06}
{"gene": "TMEM87B (transmembrane protein 87B)", "CDH1-null / parental viability ratio": 0.79, "CDH1-null viability vs mock": 0.74}
{"gene": "KRT84 (keratin 84)", "CDH1-null / parental viability ratio": 0.76, "CDH1-null viability vs mock": 0.52}

2 of these entries in another layout:
CNNM4: CDH1-null / parental viability ratio = 0.99; CDH1-null viability vs mock = 1.09
NTHL1 (nth like DNA glycosylase 1): CDH1-null / parental viability ratio = 0.76; CDH1-null viability vs mock = 0.68
